In paper PMC7895384:
Results are given in words; binding and its absence hold for the method and conditions named. Binding seen in cells or lysates may run through a third protein. A result given as binding can be weak or reduced; the word gives no strength.

Protein sequences, listed by entry. Tags and fused reporters are not part of them. Lines headed by an entry give the natural chain unless they say otherwise; changes in a name come on top.
UniProt P51023: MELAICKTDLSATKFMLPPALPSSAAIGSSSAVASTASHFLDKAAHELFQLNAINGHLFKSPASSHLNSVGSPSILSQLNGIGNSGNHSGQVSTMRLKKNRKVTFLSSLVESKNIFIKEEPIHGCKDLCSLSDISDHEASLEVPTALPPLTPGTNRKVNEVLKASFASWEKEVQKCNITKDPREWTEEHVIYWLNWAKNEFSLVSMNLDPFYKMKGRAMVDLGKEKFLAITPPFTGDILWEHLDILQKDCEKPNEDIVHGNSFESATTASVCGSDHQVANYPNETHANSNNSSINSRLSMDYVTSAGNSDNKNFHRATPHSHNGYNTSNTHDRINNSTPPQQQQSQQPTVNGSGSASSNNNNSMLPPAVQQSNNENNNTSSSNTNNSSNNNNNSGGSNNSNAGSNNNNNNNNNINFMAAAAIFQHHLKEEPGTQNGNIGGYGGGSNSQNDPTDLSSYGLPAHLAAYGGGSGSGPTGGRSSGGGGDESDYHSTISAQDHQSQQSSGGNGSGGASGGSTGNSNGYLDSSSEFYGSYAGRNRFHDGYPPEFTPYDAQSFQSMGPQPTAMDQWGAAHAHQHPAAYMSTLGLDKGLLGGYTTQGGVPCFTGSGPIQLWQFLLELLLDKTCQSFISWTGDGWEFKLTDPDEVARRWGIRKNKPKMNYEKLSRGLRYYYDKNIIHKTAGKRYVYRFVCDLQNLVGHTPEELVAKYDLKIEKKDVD
UniProt Q9VQ56: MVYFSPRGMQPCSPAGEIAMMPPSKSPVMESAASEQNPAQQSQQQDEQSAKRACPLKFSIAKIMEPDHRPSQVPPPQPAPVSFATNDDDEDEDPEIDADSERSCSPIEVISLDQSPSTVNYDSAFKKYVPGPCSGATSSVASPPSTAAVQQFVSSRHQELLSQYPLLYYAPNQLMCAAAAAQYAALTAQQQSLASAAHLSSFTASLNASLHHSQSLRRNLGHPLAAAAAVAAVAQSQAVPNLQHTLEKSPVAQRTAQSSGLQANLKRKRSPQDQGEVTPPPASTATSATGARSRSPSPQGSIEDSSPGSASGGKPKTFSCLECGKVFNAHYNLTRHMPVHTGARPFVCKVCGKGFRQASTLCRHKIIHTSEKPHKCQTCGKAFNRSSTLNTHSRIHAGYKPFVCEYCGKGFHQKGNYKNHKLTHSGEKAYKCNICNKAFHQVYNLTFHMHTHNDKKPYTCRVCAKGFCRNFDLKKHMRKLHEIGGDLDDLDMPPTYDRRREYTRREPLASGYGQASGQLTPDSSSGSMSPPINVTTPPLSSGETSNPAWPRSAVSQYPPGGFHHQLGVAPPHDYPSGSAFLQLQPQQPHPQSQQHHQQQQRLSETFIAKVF

Tests used:
[1] = target: Flag-PntP1 (Flag-tagged Pointed P1) (Drosophila) (UniProt P51023); assay: co-IP; two tagged proteins co-expressed in Drosophila S2 cells; 1% NP-40 lysis buffer (50 mM Tris-Cl, pH 8.0, 150 mM NaCl); IP overnight at 4°C with anti-HA, anti-Myc or anti-Flag antibody, protein A/G agarose beads; Western blot
[2] = target: Flag-PntP1 (Flag-tagged Pointed P1) (Drosophila) (UniProt P51023); assay: co-IP; two of the three tagged proteins co-expressed in S2 cells; graded concentrations (150mM to 1200mM) of NaCl in the 1% NP-40 lysis buffer (S7C-E Fig; lanes with two proteins of S7F Fig, % co-IP quantified from band intensities, n = 3)

binding [1]: binds
binding [2]: binds
Substance: Myc-Erm (Myc-tagged Earmuff) (from UniProt Q9VQ56 1-611)
